Test results from US6605145B1, “Alkylformamide surfactants” (Air Products and Chemicals, Inc., priority 1999, dated 2003).
Some results were stated once for a whole list of compounds, not compound by compound.

Assay: Dynamic surface tension of aqueous solutions, maximum bubble pressure method
Type: physicochemical
Conditions: 0.1 wt % in water, 0.1 b/s; listed as n-octylpyrrolidone
From the text: where R is a C5 to C11 alkyl group, provided that the organic compound is not an azole derivative fungicide. […] The maximum-bubble-pressure method of measuring surface tension is described in Langmuir 1986, 2, 428-432, which is incorporated by reference.
In the following Examples dynamic surface tension data were obtained for aqueous solutions of various compounds using the maximum bubble pressure method at bubble rates from 0.1 bubbles/second (b/s) to 20 b/s. […] In practical terms, high bubble rates correspond to high printing speeds in lithographic printing, high spray or roller velocities in coating applications, and rapid application rates for agricultural products.

CCCCCCCCN1CCCC1=O [N-n-Octylpyrrolidone, reference compound]
Dynamic Surface Tension: below 30 dyne/cm
